PubChem BioAssay AID1508597 | Cure First | 2020
The deposit covers about 2,100 reagents; this is an unselected part. 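Calls flag viability under 80% in either arm, not effects specific to rucaparib; the reference for percent is not stated.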 Some reagents were tested in more than one well and are listed for each. The record does not give: the 100% reference.

- Aim: 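Knock-downs altering ovarian cancer cell survival with or without PARP inhibitor rucaparib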 (primary screen)
- Cell system: human ovarian carcinoma lines grown from tumours: OCI-P5x (papillary serous) and OCI-C5x (clear cell)
- Reagents: siRNA pool against human genes, 1.25 pmol siRNA per well
- Duration: 72 h or 96 h, depending on the cell culture
- Challenge: rucaparib 20 µM (about IC30) or vehicle, present until read-out
- Measurement: 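ATP luminescence measured at 72 or 96 h according to the culture, then normalised and expressed as percent viability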
- Reading the numbers: viability, normalised: higher = more viable cells remaining
- Active means: 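a well counts as a hit if its normalised viability is under 80 percent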
- Meaning of the calls: active = viability under 80%; inactive = viability 80% or more

Which result is listed for GTF2H2 (GeneID 2966), rucaparib or vehicle Rucaparib, cell line OCI-C5x (clear cell), technical replicate 1?
viability, normalised (%): 64.7; outcome: active

For GTF2H2 (GeneID 2966), rucaparib or vehicle Rucaparib, cell line OCI-C5x (clear cell), technical replicate 2, what does the deposit list?
viability, normalised (%): 63.4; outcome: active

With GTF2H2 (GeneID 2966), rucaparib or vehicle Rucaparib, cell line OCI-C5x (clear cell), technical replicate 3, how do the results read?
viability, normalised (%): 66.2; outcome: active

For GTF2H2 (GeneID 2966), rucaparib or vehicle Rucaparib, cell line OCI-P5x (serous), technical replicate 1, what was measured?
viability, normalised (%): 75; outcome: active

Which result is listed for GTF2H2 (GeneID 2966), rucaparib or vehicle Rucaparib, cell line OCI-P5x (serous), technical replicate 2?
viability, normalised (%): 82.3; outcome: inactive

With GTF2H2 (GeneID 2966), rucaparib or vehicle Rucaparib, cell line OCI-P5x (serous), technical replicate 3, how do the results read?
viability, normalised (%): 68.9; outcome: active

How did the screen score GTF2H2 (GeneID 2966), rucaparib or vehicle Vehicle, cell line OCI-C5x (clear cell), technical replicate 1?
viability, normalised (%): 56.3; outcome: active

What did the screen give for GTF2H2 (GeneID 2966), rucaparib or vehicle Vehicle, cell line OCI-C5x (clear cell), technical replicate 2?
viability, normalised (%): 58.9; outcome: active

With GTF2H2 (GeneID 2966), rucaparib or vehicle Vehicle, cell line OCI-C5x (clear cell), technical replicate 3, what was measured?
viability, normalised (%): 41.5; outcome: active

What is on record for GTF2H2 (GeneID 2966), rucaparib or vehicle Vehicle, cell line OCI-P5x (serous), technical replicate 1?
viability, normalised (%): 70; outcome: active

For GTF2H2 (GeneID 2966), rucaparib or vehicle Vehicle, cell line OCI-P5x (serous), technical replicate 2, what was measured?
viability, normalised (%): 69.3; outcome: active

What did the screen give for GTF2H2 (GeneID 2966), rucaparib or vehicle Vehicle, cell line OCI-P5x (serous), technical replicate 3?
viability, normalised (%): 76.5; outcome: active

With PALB2 (GeneID 79728), rucaparib or vehicle Rucaparib, cell line OCI-C5x (clear cell), technical replicate 1, what was measured?
viability, normalised (%): 71.2; outcome: active

With PALB2 (GeneID 79728), rucaparib or vehicle Rucaparib, cell line OCI-C5x (clear cell), technical replicate 1, how do the results read?
viability, normalised (%): 39.9; outcome: active

What is on record for PALB2 (GeneID 79728), rucaparib or vehicle Rucaparib, cell line OCI-C5x (clear cell), technical replicate 2?
viability, normalised (%): 59.3; outcome: active

With PALB2 (GeneID 79728), rucaparib or vehicle Rucaparib, cell line OCI-C5x (clear cell), technical replicate 2, how do the results read?
viability, normalised (%): 93.3; outcome: inactive

Which result is listed for PALB2 (GeneID 79728), rucaparib or vehicle Rucaparib, cell line OCI-C5x (clear cell), technical replicate 3?
viability, normalised (%): 43.6; outcome: active

How did the screen score PALB2 (GeneID 79728), rucaparib or vehicle Rucaparib, cell line OCI-C5x (clear cell), technical replicate 3?
viability, normalised (%): 73.1; outcome: active

For PALB2 (GeneID 79728), rucaparib or vehicle Rucaparib, cell line OCI-P5x (serous), technical replicate 1, what was measured?
viability, normalised (%): 149; outcome: inactive

How did the screen score PALB2 (GeneID 79728), rucaparib or vehicle Rucaparib, cell line OCI-P5x (serous), technical replicate 1?
viability, normalised (%): 30.7; outcome: active

For PALB2 (GeneID 79728), rucaparib or vehicle Rucaparib, cell line OCI-P5x (serous), technical replicate 2, what does the deposit list?
viability, normalised (%): 140; outcome: inactive

For PALB2 (GeneID 79728), rucaparib or vehicle Rucaparib, cell line OCI-P5x (serous), technical replicate 2, what was measured?
viability, normalised (%): 31.5; outcome: active

With PALB2 (GeneID 79728), rucaparib or vehicle Rucaparib, cell line OCI-P5x (serous), technical replicate 3, how do the results read?
viability, normalised (%): 36.4; outcome: active

What is on record for PALB2 (GeneID 79728), rucaparib or vehicle Rucaparib, cell line OCI-P5x (serous), technical replicate 3?
viability, normalised (%): 122; outcome: inactive

For PALB2 (GeneID 79728), rucaparib or vehicle Vehicle, cell line OCI-C5x (clear cell), technical replicate 1, what was measured?
viability, normalised (%): 55.3; outcome: active

Which result is listed for PALB2 (GeneID 79728), rucaparib or vehicle Vehicle, cell line OCI-C5x (clear cell), technical replicate 1?
viability, normalised (%): 86.6; outcome: inactive

Which result is listed for PALB2 (GeneID 79728), rucaparib or vehicle Vehicle, cell line OCI-C5x (clear cell), technical replicate 2?
viability, normalised (%): 102; outcome: inactive

Which result is listed for PALB2 (GeneID 79728), rucaparib or vehicle Vehicle, cell line OCI-C5x (clear cell), technical replicate 2?
viability, normalised (%): 27.5; outcome: active

What is on record for PALB2 (GeneID 79728), rucaparib or vehicle Vehicle, cell line OCI-C5x (clear cell), technical replicate 3?
viability, normalised (%): 40.8; outcome: active

For PALB2 (GeneID 79728), rucaparib or vehicle Vehicle, cell line OCI-C5x (clear cell), technical replicate 3, how do the results read?
viability, normalised (%): 71.2; outcome: active

What is on record for PALB2 (GeneID 79728), rucaparib or vehicle Vehicle, cell line OCI-P5x (serous), technical replicate 1?
viability, normalised (%): 125; outcome: inactive

For PALB2 (GeneID 79728), rucaparib or vehicle Vehicle, cell line OCI-P5x (serous), technical replicate 1, what does the deposit list?
viability, normalised (%): 48.6; outcome: active

What did the screen give for PALB2 (GeneID 79728), rucaparib or vehicle Vehicle, cell line OCI-P5x (serous), technical replicate 2?
viability, normalised (%): 131; outcome: inactive

Which result is listed for PALB2 (GeneID 79728), rucaparib or vehicle Vehicle, cell line OCI-P5x (serous), technical replicate 2?
viability, normalised (%): 49; outcome: active

What did the screen give for PALB2 (GeneID 79728), rucaparib or vehicle Vehicle, cell line OCI-P5x (serous), technical replicate 3?
viability, normalised (%): 112; outcome: inactive

What is on record for PALB2 (GeneID 79728), rucaparib or vehicle Vehicle, cell line OCI-P5x (serous), technical replicate 3?
viability, normalised (%): 56.9; outcome: active
